Here are results for two substances from publication PMC9544816.

Amino acid sequences for entries named in this document (tags omitted). Residues count along the entry.
UniProt P25911: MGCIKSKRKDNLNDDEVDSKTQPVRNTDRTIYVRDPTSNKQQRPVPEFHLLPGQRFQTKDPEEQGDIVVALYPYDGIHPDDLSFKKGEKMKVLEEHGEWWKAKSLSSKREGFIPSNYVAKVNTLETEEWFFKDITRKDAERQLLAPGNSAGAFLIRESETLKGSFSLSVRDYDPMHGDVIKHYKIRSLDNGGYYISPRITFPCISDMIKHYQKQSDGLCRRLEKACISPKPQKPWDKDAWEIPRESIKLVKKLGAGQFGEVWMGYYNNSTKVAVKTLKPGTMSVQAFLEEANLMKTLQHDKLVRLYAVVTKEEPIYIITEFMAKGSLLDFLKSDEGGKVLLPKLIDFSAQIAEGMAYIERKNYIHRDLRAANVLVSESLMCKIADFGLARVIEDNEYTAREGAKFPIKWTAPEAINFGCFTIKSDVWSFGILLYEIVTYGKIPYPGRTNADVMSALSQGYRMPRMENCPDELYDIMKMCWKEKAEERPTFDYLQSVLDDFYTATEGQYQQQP
UniProt Q9QUK6, residues 26-835: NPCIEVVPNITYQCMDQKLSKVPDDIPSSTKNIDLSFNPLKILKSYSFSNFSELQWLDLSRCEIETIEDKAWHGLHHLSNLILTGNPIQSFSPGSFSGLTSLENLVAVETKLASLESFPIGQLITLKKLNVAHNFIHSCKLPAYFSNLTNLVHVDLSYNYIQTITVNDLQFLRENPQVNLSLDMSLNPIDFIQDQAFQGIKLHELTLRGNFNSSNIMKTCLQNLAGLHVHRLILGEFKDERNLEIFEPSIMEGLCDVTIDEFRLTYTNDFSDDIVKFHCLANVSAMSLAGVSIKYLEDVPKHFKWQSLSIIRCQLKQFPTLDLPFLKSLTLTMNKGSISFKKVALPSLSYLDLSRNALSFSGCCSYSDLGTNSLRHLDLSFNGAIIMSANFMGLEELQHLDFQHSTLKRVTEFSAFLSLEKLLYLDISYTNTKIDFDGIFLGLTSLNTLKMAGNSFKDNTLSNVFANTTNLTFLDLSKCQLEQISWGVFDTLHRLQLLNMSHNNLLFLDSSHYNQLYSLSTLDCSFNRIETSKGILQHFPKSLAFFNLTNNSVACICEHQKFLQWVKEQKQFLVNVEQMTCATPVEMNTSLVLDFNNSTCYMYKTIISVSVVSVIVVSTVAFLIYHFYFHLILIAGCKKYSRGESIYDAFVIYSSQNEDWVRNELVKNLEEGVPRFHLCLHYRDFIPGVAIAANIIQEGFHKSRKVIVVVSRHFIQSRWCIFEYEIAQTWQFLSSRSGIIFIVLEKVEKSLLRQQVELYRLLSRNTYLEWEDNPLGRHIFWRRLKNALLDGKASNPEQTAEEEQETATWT

Experiment [1] has as its target Scimp translational variant 1 (Scimp TV1) (mouse (endogenous in BMMs)) (UniProt Q3UU41). Put plainly: co-IP; rabbit anti-Scimp antibody on protein G plus agarose, 1 h at 4°C; lysates of CSF-1-BMMs from WT and Scimp TV1 mice primed overnight with GM-CSF (10 ng/mL) and stimulated with LPS (10 ng/mL) over a time course; lysis buffer 20 mM TRIS pH 7.4, 150 nM NaCl (so in the source), 1% NP40, 5% glycerol; western blot for TLR4 and Lyn.

Experiment [2] has as its target Scimp (full-length Scimp; Slp65/76 and CSK-interacting membrane protein) (mouse (endogenous in BMMs)) (UniProt Q3UU41). The description is as above.

These are yes or no findings as the source states them, for the method shown. In cells and extracts the contact can be indirect. Some binding calls cover weakened binding; strength is not graded here.

Regarding “Lyn (from UniProt P25911 1-512) (enzyme)”, the binding entry in experiment [1] and in experiment [2] was “binds” each time.
With “TLR4 (from UniProt Q9QUK6 26-835) (receptor)”, the binding result in experiment [2] was “binds”.
